Screen size: about 2,100 compounds; about 260 (12%) were called active. The inconclusive results got no clear call from the source; some entries with a clear call stand among them for comparison. The call rests on the fitted dose curve; in most records, active means well fitted cell-killing curve with a large enough effect; inconclusive means small, poorly fitted or top-dose-only effect, or effect the other way; inactive means flat fitted curve, though single readings scatter. Where the call is inconclusive, the potency comes from a doubtful curve fit.
Experiment: Viability Counterscreen for Confirmatory qHTS for Inhibitors of ATXN expression; further: nearly all actives have a fitted effect of over 50% in size
Conditions: HEK-293 ATXN2-luc cells viability, CellTiter-Fluor, 24 h; activity change, negative = cytotoxicity: at 11.5 µM (top of the series) unless noted
Source text: PI: Daniel Scoles Ph.D. University of Utah School of Medicine, Salt Lake City, Utah MLPCN Grant: NS073009 Spinocerebellar ataxia type 2 (SCA2) is a multisystem neurodegenerative disease caused by a dominantly acting mutation leading to expansion of a polyQ domain in the ataxin-2 protein (ATXN2). SCA2 patients develop progressive ataxia and later lose function in other neuronal systems. Prominent parkinsonian signs develop in some patients. Like many neurodegenerative disorders, no symptomatic or disease-modifying treatments are known. The primary objective of the proposed research is to identify compounds inhibiting ATXN2 expression and to test them for efficacy in SCA2 mouse models. We have developed a cell-based assay paired with an in vivo mouse model using identical luciferase expression constructs. This approach takes advantage of an ATXN2-luciferase transgene, with the luciferase gene flanked by the upstream and downstream portions of the ATXN2 gene. Here we describe a 5-7 dose quantitative high thoroughput screen (qHTS) for compounds lowering ATXN2 expression. We screened the NIH Molecular Libraries Small Molecule Repository (MLSMR) and NCGC's mechanistically annotated (MIPE) and drug repurposing (NPC) collections of compounds for lowering expression of an ATXN2-luciferase reporter in HEK-293 cells. The assay is a multiplexed cell viability assay to ensure target reduction in the absence of cytotoxicity. Secondary qHTS assays included a CMV-luciferase reporter expressed in HEK-293 cells as well as a biochemical assay using recombinant luciferase to detect inhibitors of the reporter enzyme. Compounds that inhibit ATXN2 expression but is not cytotoxic were selected for confirmatory and secondary screens.
PROTOCOL TABLE (as described by Inglese J, Shamu CE and Guy RK. 2007) SEQUENCE No. (e.g., 1, 2, 3, etc.); […] (e.g., Cells, Incubation, Reagent, etc.); VALUE; DESCRIPTION. 1; Cells; 4 uL; white, solid bottom, 1536-well Greiner assay plate. 2; Incubation; 2 hr; 37 degree C in 5% humidified CO2. 3; Compounds; 23 nL; Kalypsis pintool (Wako USA) equipped with a 1536-well pin head. 4; Incubation; 24 hr; 37 degree C in 5% humidified CO2. 5; Reagent; 1 uL; Gly-Phe-7-Amino-4-trifluoromethylcoumarin. 6; Incubation; 30 min; 37 degree C in 5% humidified CO2. 7; Detection; Fluorescence; ViewLux plate reader (PerkinElmer). 8; Reagent; 3 uL; SteadyGlo luciferase solution (Promega). 9; Incubation; 5 min; room temperature. 10; Detection; Luminescence; ViewLux plate reader (PerkinElmer). NOTES (numbers refer to Sequence numbers above) 1. S2 cells expressing ATXN2-luciferase reporter were suspended in phenol-red free DMEM and dispensed in assay plates using a Multidrop Combi dispenser (Thermo Fisher Scientific). Wells containing medium only were plated on each plate, and values were used to normalize (100% inhibition) in the luciferase and CellTiter-Fluor assays. 2. Assay plates were incubated. Evaporation was prevented by covering assay plates with metal lids containing holes to allow gas diffusion. 3. Compounds were added in a dose response manner with the final concentrations of 57, 11.4, 2.28, 0.46, 0.091, 0.018, 0.0037 uM. Vehicle-only plates, with DMSO being pin-transferred to columns 5-48, were inserted uniformly at the beginning and the end of each library to monitor and record any shifts in assay performance. 5. 125 uM Gly-Phe-7-Amino-4-trifluoromethylcoumarin (MP Biomedicals) working concentration was used at a final concentration of 25 uM. 7. To assess cell viability; the assay plates were read using the ViewLux high-throughput CCD imager (PerkinElmer), wherein single end-point fluorescence measurement was acquired (excitation 405/10; emission 540/25 nm). 8. Detection reagent SteadyGlo Luciferase (Promega) was added to the assay plate. 10. Luminescence is then measured on the ViewLux imager equipped with a clear emission filter using a 2 sec exposure. […]
Potency means the concentration at half of the fitted maximal effect.

SMILES | Potency | activity change, negative = cytotoxicity
O=C(Nc1cnn(C23CC4CC(CC(C4)C2)C3)c1)c1cnn2c(C(F)(F)F)cc(-c3ccco3)nc12 | active: 35.5 µM | 
CN(/N=C/c1cc(Br)cc(Br)c1O)c1cccc(C(F)(F)F)n1 | inconclusive: 39.8 µM [cytotoxic, partial curve, poor fit] | 
CC(C)CC[n+]1ccn(C2=C([O-])c3ccccc3C(=O)/C2=N\S(=O)(=O)c2ccccc2)c1 | inconclusive: 3.16 µM [cytotoxic, partial curve, poor fit] | 
CCc1c(C)nc2ncnn2c1N1CCC(C(=O)Nc2ccc(C)cc2)CC1 |  | inactive: -16.8% [at 57.5 µM]
Cc1ccc(OCCNC(=O)c2cncc(Br)c2)cc1C |  | inactive: -20.8% [at 57.5 µM]
CC(=O)NC(c1cc(Cl)c2cccnc2c1O)C(C)C (stereo not given) | inconclusive: 1.78 µM [cytotoxic, partial curve] | 
Cc1c(C(=O)NCc2ccc(C(F)(F)F)cc2)sc(=O)n1Cc1cccc(F)c1 |  | inactive: -16.1% [at 57.5 µM]
CC[n+]1ccccc1/C=C1\Sc2ccc(C)cc2N1C | inconclusive: 17.8 µM [cytotoxic, partial curve] | 
COc1cccc(/C=N/NC(=O)c2nc(-c3ccccc3)cc(-c3ccccc3)n2)c1O | inconclusive: 3.98 µM [cytotoxic, partial curve] | 
COc1ccc(C(=O)NC(=C(Cl)Cl)S(=O)(=O)c2ccc(C)cc2)cc1 |  | inactive: -18%
COc1ccc(Cc2[nH]n3c(=O)cc(C(C)C)nc3c2-c2ccccc2)cc1 | inconclusive: 11.2 µM [cytotoxic, partial curve] | 
CCc1ccc(-n2cc(-c3ccc(F)cc3)[n+]3c2SCCC3)cc1 |  | inactive: -20.7% [at 57.5 µM]
O=C(Nc1ccc(Cl)cc1)Nc1nc(-c2sccc2Br)cs1 | active: 10 µM | 
Cc1[nH]n(-c2cccc3ccccc23)c(=O)c1/C=N/NC(=O)c1cccc([N+](=O)[O-])c1 | inconclusive: 14.1 µM [cytotoxic, partial curve] | 
CCOc1ccc(N(CC(=O)NCCC2=CCCCC2)S(=O)(=O)c2ccccc2)cc1 | inconclusive: 3.55 µM [cytotoxic, single point] | 
O=C(OCCN1C(=O)c2cccc3c(N4CCOCC4)ccc(c23)C1=O)c1ccccc1Cl | inconclusive: 22.4 µM [rising, partial curve] | 
O=c1c2c3c(sc2ncn1/N=C/c1ccc([N+](=O)[O-])o1)CCCC3 | active: 3.55 µM | 
CC1(S(=O)(=O)O)CC(=O)c2ccccc2C1=O (stereo not given) |  | inactive: 3.58% [at 57.5 µM]
Cn1nnnc1Sc1ncnc2scc(-c3cccc(S(C)(=O)=O)c3)c12 | active: 22.4 µM | 
COc1cnc(-c2ccccn2)nc1Oc1c(C)cccc1C | inconclusive: 39.8 µM [cytotoxic, single point] | 
CC(=O)NC(c1ccc(C(C)C)cc1)c1ccc2cccnc2c1O (stereo not given) | inconclusive: 2.24 µM [cytotoxic, partial curve, poor fit] | 
CSc1sc(C(=O)NN)c2c1C1(CCC2)SCCS1 |  | inactive: -26.8% [at 57.5 µM]
COc1cccc2c1C(CO)N1C(C#N)C3CC(C(=O)O)C(C1C2)N3C (stereo not given) | inconclusive: 0.316 µM [cytotoxic, full curve] | 
Cc1onc(-c2ccccc2)c1C(=O)N/N=C/c1c[nH]c2ccccc12 |  | inactive: -15.8% [at 57.5 µM]

SMILES | Potency | activity change, negative = cytotoxicity
CC(=O)N(C1=C(Cl)C(=O)c2ccccc2C1=O)C1CCCCC1 | inconclusive: 2.82 µM [rising, partial curve, poor fit] | 
COc1cccc(Nc2nc(C(N)CCc3ccccc3)cs2)n1 (stereo not given) | inconclusive: 39.8 µM [cytotoxic, single point] | 
NS(=O)(=O)c1ccc(N2N=C(c3ccccc3)CC2c2ccc(F)cc2)cc1 (stereo not given) |  | inactive: -3.59%
Cc1cccn2c(=O)c(/C=C(\C#N)C(N)=O)c(N3CCN(c4cccc(Cl)c4)CC3)nc12 | inconclusive: 22.4 µM [cytotoxic, single point] | 
Cc1c(C(=O)N/N=C/c2c(O)ccc3ccccc23)nnn1-c1nonc1N |  | inactive: -20.6%
Cn1cc(SCC(=O)Nc2nc3ccccc3s2)c2ccccc21 |  | inactive: -4.73%
CN(C)CCNC(=O)c1cccc(-c2cnc3c(NC=O)cc(/C=C/c4ccccc4)cn23)c1 | inconclusive: 28.2 µM [cytotoxic, single point] | 
NNc1nc(N)c2c(n1)-c1ccccc1CC21CCCC1 |  | inactive: -20.9% [at 57.5 µM]
CCn1c(COc2ccccc2C)nnc1SCC(=O)N1CCN(c2ccccc2)CC1 |  | inactive: -30% [at 57.5 µM]
CCSc1ccc(-c2cc(NC=O)c3ncc(-c4cccc(C(=O)NCCN(C)C)c4)n3c2)cc1 | inconclusive: 6.31 µM [cytotoxic, single point] | 
CC[C@]12c3[nH]c4ccc(Cl)cc4c3CCN1C(=O)[C@@H](CC(=O)NCC13CC4CC(CC(C4)C1)C3)C[C@@H]2C(=O)N1CCN(C(=O)C2CC2)CC1 | inconclusive: 25.1 µM [cytotoxic, single point] | 
Cn1c(SCC(=O)N/N=C/c2ccc([N+](=O)[O-])s2)nnc1-c1ccccc1 | active: 22.4 µM | 
Cc1cc(C)n(CC(O)Cn2c3ccc(Cl)cc3c3cc(Cl)ccc32)c(=O)n1 (stereo not given) | inconclusive: 3.16 µM [cytotoxic, single point] | 
O=C(NCC(=O)N1CC(O)CC1C(=O)N1CCCC1C(=O)OCc1ccccc1)OCc1ccccc1 (stereo not given) |  | inactive: -12%
O=C(CNC(=O)c1ccccc1)N/N=C/c1cc(Br)ccc1O | inconclusive: 15.8 µM [cytotoxic, partial curve] | 
COc1cc(NC(=O)c2cc(-c3ccccc3)nc3c2cnn3C(C)C)cc(OC)c1OC |  | inactive: -29.6%
O=C(N/N=C\c1cccnc1)c1cc(-c2ccccc2)nc2c(Cl)cccc12 | inconclusive: 20 µM [cytotoxic, partial curve] | 
COc1cc(Br)cc(/C=N/NC(=O)Cc2ccc(C(F)(F)F)cc2[N+](=O)[O-])c1O | inconclusive: 22.4 µM [cytotoxic, partial curve] | 
Cc1cc(O)c(C)c(O)c1/C=N/NC(=O)c1cccnc1 | inconclusive: 14.1 µM [cytotoxic, partial curve] | 
C/C(=N\NC(=O)C12CCC(C)(C(=O)O1)C2(C)C)c1ccccc1O (stereo not given) |  | inactive: -16.2%
CC(=NNC(=O)c1ccncc1)c1ccccc1O | inconclusive: 11.2 µM [cytotoxic, partial curve, poor fit] | 
FC(F)(F)c1nc(-c2cccs2)ncc1-c1nnnn1-c1ccc(Cl)cc1 | active: 35.5 µM | 
Cc1cc(C)cc(C(=O)Nc2ccc(N3CCN(C(=O)c4ccco4)CC3)cc2)c1 | inconclusive: 3.98 µM [cytotoxic, partial curve, poor fit] | 
C=CCn1cnc2c(c1=O)c1nc3ccccc3nc1n2/N=C/c1cc(OC)c(OC)c(OC)c1 | active: 20 µM | 

SMILES | Potency | activity change, negative = cytotoxicity
NNc1ncnc2sc3c(c12)CCC3 |  | inactive: -29.5% [at 57.5 µM]
Cc1ccc(C(=O)COC(=O)c2ccc3c(c2)C(=O)N(c2cccc4ncccc24)C3=O)cc1 | inconclusive: 28.2 µM [cytotoxic, single point] | 
C=CCc1cccc(/C=N/NC(=O)CNc2ccccc2OC)c1O | inconclusive: 22.4 µM [cytotoxic, partial curve] | 
Oc1ccc(C2CNCc3sccc32)cc1O (stereo not given) |  | inactive: -19.8% [at 57.5 µM]
CC(C)(C)c1ccc(NC(=O)N2CCCN(c3c(Cl)cncc3Cl)CC2)cc1 |  | inactive: -10.7% [at 57.5 µM]
C/C(=N\N=C(N)N)c1ccc(Cl)cc1Cl | inconclusive: 20 µM [cytotoxic, single point] | 
CN1CCN(C(c2ccc(C(F)(F)F)cc2)c2ccc3cccnc3c2O)CC1 (stereo not given) | inconclusive: 12.6 µM [cytotoxic, partial curve] | 
COc1ccccc1N(CC(=O)N/N=C/c1c(O)ccc2ccccc12)S(C)(=O)=O | inconclusive: 10 µM [cytotoxic, partial curve] | 
COC(=O)C(Cc1ccc(O)cc1)NC(=O)C(C)Oc1ccccc1 (stereo not given) |  | inactive: -13.2% [at 57.5 µM]
O=C(CCc1ccccc1)NC(c1cccs1)c1cc(Cl)c2cccnc2c1O (stereo not given) | inconclusive: 7.08 µM [cytotoxic, partial curve, poor fit] | 
CC(C)[C@H](CO)Nc1nc(NCc2ccc(S(N)(=O)=O)cc2)c2ncn(C(C)C)c2n1 | inconclusive: 3.16 µM [cytotoxic, partial curve, poor fit] | 
COc1ccc(/C=C2/CSC/C(=C/c3ccc(OC)c(OC)c3)C2=O)cc1OC | active: 11.2 µM | 
CCN(CC)CCNC(=O)c1ccc(NC(=O)c2ccccc2-c2ccc(C(F)(F)F)cc2)cc1 | inconclusive: 25.1 µM [cytotoxic, single point] | 
O=C(c1ccc2c(c1)OCO2)N(Cc1cccs1)C1(C(=O)NC2CCCCC2)CCCCC1 | inconclusive: 15.8 µM [cytotoxic, partial curve] | 
COc1ccc(C2CC(c3ccc(C(F)(F)F)cc3)=NN2c2ccc(S(N)(=O)=O)cc2)cc1 (stereo not given) | inconclusive: 15.8 µM [rising, partial curve] | 
CCC(C)(C)c1ccc(OCCCC[n+]2ccccc2)c(C(C)(C)CC)c1 |  | inactive: -22%
COc1cccc(CC(=O)Nc2nc(-c3ccc(OC)c(OC)c3)cs2)c1 | inconclusive: 28.2 µM [cytotoxic, single point] | 
CCCCNCCCOc1cccc(Cl)c1Cl |  | inactive: -20.9% [at 57.5 µM]
Cn1c(/C=C/c2cccc([N+](=O)[O-])c2)c([N+](=O)[O-])c(=O)n(C)c1=O | inconclusive: 22.4 µM [cytotoxic, partial curve, poor fit] | 
Cc1ccc2nc(-c3ccccn3)c(NC3CCCC3)n2c1 |  | inactive: -22.4%
CCN1C(=O)/C(=C/c2nc3ccccc3c(=O)n2-c2ccccc2)c2ccccc21 | active: 25.1 µM | 
O=S(=O)(c1cccs1)N1CCN(c2ccnc3cc(Cl)ccc23)CC1 | inconclusive: 25.1 µM [cytotoxic, single point] | 

An excerpt from above in order of SMILES length, largest number first.
SMILES | Potency | activity change, negative = cytotoxicity
CCN(CC)CCNC(=O)c1ccc(NC(=O)c2ccccc2-c2ccc(C(F)(F)F)cc2)cc1 | inconclusive: 25.1 µM [cytotoxic, single point] | 
COc1cccc(CC(=O)Nc2nc(-c3ccc(OC)c(OC)c3)cs2)c1 | inconclusive: 28.2 µM [cytotoxic, single point] | 
C=CCc1cccc(/C=N/NC(=O)CNc2ccccc2OC)c1O | inconclusive: 22.4 µM [cytotoxic, partial curve] | 
C/C(=N\N=C(N)N)c1ccc(Cl)cc1Cl | inconclusive: 20 µM [cytotoxic, single point] | 
CCCCNCCCOc1cccc(Cl)c1Cl |  | inactive: -20.9% [at 57.5 µM]
